Laboratory results: PubChem BioAssay AID652243 (Drosophila RNAi Screening Center, 2013)
Assay: 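Fly regulators of androgen-dependent reporter output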 (primary screen). Cell system: Drosophila S2R+ cells. Reagent: long dsRNA against Drosophila genes. Duration: 72 h (48 h, then 24 h hormone). Conditions: synthetic androgen R1881 at 10 nM for 24 h. Read-out: 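Per-well raw luminescence of the androgen-driven firefly reporter and of the Renilla control, two replicates each, without normalisation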. Reading the numbers: firefly reporter light: higher = more light from androgen-responsive reporter; Renilla control light: higher = more constitutive control signal (cell number, transfection). Hit rule: 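Across duplicate plates, a knock-down whose log firefly/Renilla ratio shifted a set fold down or up from the GFP/LacZ control mean was a hit; the downward cut appears as both 1.5 and 3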. Meaning of the calls: active = hit: reporter lowered or raised; inactive = no hit.
The screen tested about 24,000 reagents; below is an unselected part of those that have a named target and a result. In the full data, 246 (1%) were called active. 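Plates not normalised; calls are printed but the firefly/Renilla ratio behind them is not deposited; fold cut for lowering reported inconsistently.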 The raw values are shown without normalisation. A number with no mark means an inactive call. The numbers tell different reagents against one gene apart. Not given: the amount of reagent.

CG17477 #1: firefly reporter light, replicate 1 = 87831; firefly reporter light, replicate 2 = 90933; Renilla control light, replicate 1 = 2.19e6; Renilla control light, replicate 2 = 1.71e6
CG17477 #2: firefly reporter light, replicate 1 = 2.70e5; firefly reporter light, replicate 2 = 2.63e5; Renilla control light, replicate 1 = 5.53e5; Renilla control light, replicate 2 = 6.19e5
Mfe2 (peroxisomal Multifunctional enzyme type 2): firefly reporter light, replicate 1 = 93370; firefly reporter light, replicate 2 = 1.32e5; Renilla control light, replicate 1 = 8.79e5; Renilla control light, replicate 2 = 8.36e5
M1BP (Motif 1 Binding Protein) #1: firefly reporter light, replicate 1 = 59436; firefly reporter light, replicate 2 = 1.21e5; Renilla control light, replicate 1 = 3.37e5; Renilla control light, replicate 2 = 4.29e5
M1BP (Motif 1 Binding Protein) #2: firefly reporter light, replicate 1 = 4.15e5; firefly reporter light, replicate 2 = 5.04e5; Renilla control light, replicate 1 = 1.12e6; Renilla control light, replicate 2 = 1.12e6
Agpat1 (1-Acylglycerol-3-phosphate O-acyltransferase 1) #1: firefly reporter light, replicate 1 = 1.77e5 (active); firefly reporter light, replicate 2 = 1.45e5; Renilla control light, replicate 1 = 2.48e6; Renilla control light, replicate 2 = 2.61e6
Agpat1 (1-Acylglycerol-3-phosphate O-acyltransferase 1) #2: firefly reporter light, replicate 1 = 4.52e5; firefly reporter light, replicate 2 = 5.40e5; Renilla control light, replicate 1 = 4.23e6; Renilla control light, replicate 2 = 4.30e6
S1P (Site-1 protease): firefly reporter light, replicate 1 = 2.86e5; firefly reporter light, replicate 2 = 2.10e5; Renilla control light, replicate 1 = 2.88e6; Renilla control light, replicate 2 = 2.35e6
CG17760 #1: firefly reporter light, replicate 1 = 3.10e5; firefly reporter light, replicate 2 = 2.80e5; Renilla control light, replicate 1 = 1.35e6; Renilla control light, replicate 2 = 2.24e6
CG17760 #2: firefly reporter light, replicate 1 = 1.12e6; firefly reporter light, replicate 2 = 1.04e6; Renilla control light, replicate 1 = 9.58e5; Renilla control light, replicate 2 = 9.86e5
CG7333: firefly reporter light, replicate 1 = 3.71e5; firefly reporter light, replicate 2 = 4.43e5; Renilla control light, replicate 1 = 3.24e6; Renilla control light, replicate 2 = 3.73e6
Cpr66D (Cuticular protein 66D) #1: firefly reporter light, replicate 1 = 5.44e5; firefly reporter light, replicate 2 = 5.33e5; Renilla control light, replicate 1 = 1.47e6; Renilla control light, replicate 2 = 1.33e6
Cpr66D (Cuticular protein 66D) #2: firefly reporter light, replicate 1 = 3.20e5; firefly reporter light, replicate 2 = 3.96e5; Renilla control light, replicate 1 = 6.63e5; Renilla control light, replicate 2 = 6.10e5
CG8654: firefly reporter light, replicate 1 = 1.42e6; firefly reporter light, replicate 2 = 6.42e5; Renilla control light, replicate 1 = 1.58e6; Renilla control light, replicate 2 = 6.43e5
scaf (scarface): firefly reporter light, replicate 1 = 8.54e5; firefly reporter light, replicate 2 = 9.52e5; Renilla control light, replicate 1 = 1.12e6; Renilla control light, replicate 2 = 1.81e6
Tbcd (Tubulin-binding cofactor D): firefly reporter light, replicate 1 = 1.01e6; firefly reporter light, replicate 2 = 9.95e5; Renilla control light, replicate 1 = 4.24e6; Renilla control light, replicate 2 = 2.41e6
DCTN6-p27 (Dynactin 6, p27 subunit) #1: firefly reporter light, replicate 1 = 2.35e5; firefly reporter light, replicate 2 = 2.79e5; Renilla control light, replicate 1 = 1.77e6; Renilla control light, replicate 2 = 3.24e6
DCTN6-p27 (Dynactin 6, p27 subunit) #2: firefly reporter light, replicate 1 = 3.12e5; firefly reporter light, replicate 2 = 5.94e5; Renilla control light, replicate 1 = 7.31e5; Renilla control light, replicate 2 = 1.27e6
DCTN6-p27 (Dynactin 6, p27 subunit) #3: firefly reporter light, replicate 1 = 3.95e5; firefly reporter light, replicate 2 = 2.60e5; Renilla control light, replicate 1 = 1.11e6; Renilla control light, replicate 2 = 1.04e6
CG8679: firefly reporter light, replicate 1 = 90762; firefly reporter light, replicate 2 = 1.59e5; Renilla control light, replicate 1 = 1.32e6; Renilla control light, replicate 2 = 1.90e6
Dnaaf3 (Dynein axonemal assembly factor 3): firefly reporter light, replicate 1 = 1.51e5; firefly reporter light, replicate 2 = 1.76e5; Renilla control light, replicate 1 = 1.56e6; Renilla control light, replicate 2 = 1.27e6
upd2 (unpaired 2) #1: firefly reporter light, replicate 1 = 6.12e5; firefly reporter light, replicate 2 = 9.69e5; Renilla control light, replicate 1 = 1.14e6; Renilla control light, replicate 2 = 2.24e6
upd2 (unpaired 2) #2: firefly reporter light, replicate 1 = 4.53e5; firefly reporter light, replicate 2 = 3.18e5; Renilla control light, replicate 1 = 1.51e6; Renilla control light, replicate 2 = 5.92e5
pit (pitchoune) #1: firefly reporter light, replicate 1 = 2.91e5; firefly reporter light, replicate 2 = 2.69e5; Renilla control light, replicate 1 = 3.81e6; Renilla control light, replicate 2 = 3.34e6
pit (pitchoune) #2: firefly reporter light, replicate 1 = 4.00e5; firefly reporter light, replicate 2 = 5.87e5; Renilla control light, replicate 1 = 8.58e5; Renilla control light, replicate 2 = 1.06e6
pit (pitchoune) #3: firefly reporter light, replicate 1 = 3.66e5; firefly reporter light, replicate 2 = 6.10e5; Renilla control light, replicate 1 = 9.10e5; Renilla control light, replicate 2 = 1.93e6
nol (no optic lobe) #1: firefly reporter light, replicate 1 = 7.45e5; firefly reporter light, replicate 2 = 8.90e5; Renilla control light, replicate 1 = 1.16e6; Renilla control light, replicate 2 = 1.19e6
nol (no optic lobe) #2: firefly reporter light, replicate 1 = 3.26e5; firefly reporter light, replicate 2 = 5.02e5; Renilla control light, replicate 1 = 6.61e5; Renilla control light, replicate 2 = 5.80e5

Entries above whose gene name starts with D or d:
DCTN6-p27 (Dynactin 6, p27 subunit) #1: firefly reporter light, replicate 1 = 2.35e5; firefly reporter light, replicate 2 = 2.79e5; Renilla control light, replicate 1 = 1.77e6; Renilla control light, replicate 2 = 3.24e6
DCTN6-p27 (Dynactin 6, p27 subunit) #2: firefly reporter light, replicate 1 = 3.12e5; firefly reporter light, replicate 2 = 5.94e5; Renilla control light, replicate 1 = 7.31e5; Renilla control light, replicate 2 = 1.27e6
DCTN6-p27 (Dynactin 6, p27 subunit) #3: firefly reporter light, replicate 1 = 3.95e5; firefly reporter light, replicate 2 = 2.60e5; Renilla control light, replicate 1 = 1.11e6; Renilla control light, replicate 2 = 1.04e6
Dnaaf3 (Dynein axonemal assembly factor 3): firefly reporter light, replicate 1 = 1.51e5; firefly reporter light, replicate 2 = 1.76e5; Renilla control light, replicate 1 = 1.56e6; Renilla control light, replicate 2 = 1.27e6
